Measured values published in paper PMC9741252, “Novel Nanomolar Allosteric Modulators of AMPA Receptor of Bis(pyrimidine) Series: Synthesis, Biotesting and SAR Analysis” (Molecules, 2022).

Tested on: T1, AMPA receptor (AMPAR)
T1 construct: gene Gria1; native AMPA receptors in freshly isolated single cerebellar Purkinje neurons of 12-15-day-old rats; subunit composition not determined
Test: whole-cell patch clamp, kainate-induced currents, Purkinje neurons
Type: cell-based, Rattus norvegicus
Conditions: kainate as agonist (10^-6-10^-4 M)

[1] = positive allosteric modulator, n = 3 neurons
[2] = positive allosteric modulator, n = 4 neurons
[3] = positive allosteric modulator, n = 5 neurons

Row | SMILES | Currents (%) for Various Concentrations of Compounds (M, Control = 100%) / 10^-9 [2] | Currents (%) for Various Concentrations of Compounds (M, Control = 100%) / 10^-9 [3] | further results
1 | Cc1nc(Oc2ccc(Oc3nc(C)nc4c3CCCCC4)cc2)cc(C(C)(C)C)n1 [1n, 4-(4-((6-(tert-Butyl)-2-methylpyrimidin-4-yl)oxy)phenoxy)-2-methyl-6,7,8,9-tetrahydro-5H-cyclohepta[d]pyrimidine] |  |  | Currents (%) for Various Concentrations of Compounds (M, Control = 100%) / 10^-9 [1]: 138 ± 6%
2 | Cc1nc(Oc2ccc(Oc3nc(C)nc4c3CCC4)cc2)cc(C(C)(C)C)n1 [1m, 4-(4-((6-(tert-Butyl)-2-methylpyrimidin-4-yl)oxy)phenoxy)-2-methyl-6,7-dihydro-5H-cyclopenta[d]pyrimidine] | 119 ± 9% |  | 
3 | c1nc2c(c(Oc3ccc(Oc4ncnc5c4CCCC5)cc3)n1)CCCC2 [1f, 1,4-Bis((5,6,7,8-tetrahydroquinazolin-4-yl)oxy)benzene] | 166 ± 12% |  | 
4 | Cc1nc2c(c(Oc3ccc(Oc4nc(C)nc5c4CCC5)cc3)n1)CCC2 [1g, 1,4-Bis((2-methyl-6,7-dihydro-5H-cyclopenta[d]pyrimidin-4-yl)oxy)benzene] |  |  | Currents (%) for Various Concentrations of Compounds (M, Control = 100%) / 10^-9 [1]: 118 ± 4%
5 | Cc1nc2c(c(Oc3ccc(Oc4nc(C)nc5c4CCCC5)cc3)n1)CCCCC2 [1k, 2-Methyl-4-(4-((2-methyl-5,6,7,8-tetrahydroquinazolin-4-yl)oxy)phenoxy)-6,7,8,9-tetrahydro-5H-cyclohepta[d]pyrimidine] |  | 177 ± 6% | 
6 | Cc1nc2c(c(Oc3ccc(Oc4nc(C)nc5c4CCCCC5)cc3)n1)CCCCC2 [1h, 1,4-Bis((2-methyl-6,7,8,9-tetrahydro-5H-cyclohepta[d]pyrimidin-4-yl)oxy)benzene] |  | 153 ± 9% | 
7 | Cc1nc(Oc2ccc(Oc3nc(C)[n+]([O-])c4c3CCCC4)cc2)c2c([n+]1[O-])CCCC2 [1p, 4,4′-[1,4-Phenylenebis(oxy)]bis(2-methyl-5,6,7,8-tetrahydroquinazoline) 1,1′-Dioxide] | 133 ± 11% |  | 
8 | Cc1nc2c(c(Oc3ccc(Oc4nc(C)[n+]([O-])c5c4CCCC5)cc3)n1)CCCC2 [1o, 2-Methyl-4-(4-((2-methyl-5,6,7,8-tetrahydroquinazolin-4-yl)oxy)phenoxy)-5,6,7,8-tetrahydroquinazoline 1-Oxide] |  | 161 ± 9% | 
9 | Cc1nc2c(c(Oc3ccc(Oc4nc(C)nc5c4CCC5)cc3)n1)CCCC2 [1j, 2-Methyl-4-(4-((2-methyl-6,7-dihydro-5H-cyclopenta[d]pyrimidin-4-yl)oxy)phenoxy)-5,6,7,8-tetrahydroquinazoline] |  |  | Currents (%) for Various Concentrations of Compounds (M, Control = 100%) / 10^-9 (negative allosteric modulator, n = 6 neurons): 71 ± 4%
10 | Cc1nc(Oc2ccc(Oc3cc(C(C)(C)C)nc(C)n3)cc2)cc(C(C)(C)C)n1 [1i, 1,4-Bis((6-(tert-butyl)-2-methylpyrimidin-4-yl)oxy)benzene] |  | 151 ± 12% | 
11 | Cc1nc(Oc2ccc(Oc3nc(C)nc4c3CCCC4)cc2)cc(C(C)(C)C)n1 [1l, 4-(4-((6-(tert-Butyl)-2-methylpyrimidin-4-yl)oxy)phenoxy)-2-methyl-5,6,7,8-tetrahydroquinazoline] | 129 ± 6% |  | 
